In all, about 33,000 sequences were measured (“E-score (-0.5 to 0.5)”: median about -0.015, highest 2% from about 0.3 on). Some of the results follow.
molecular target: T1, Abf1 (UniProt P14164); assay: PBM E-score (8-mer binding enrichment) (E-score (-0.5 to 0.5)); higher = stronger / more preferred TF binding; conditions: protein concentration: 200 nM; construct: GST-full length
T1 sequence: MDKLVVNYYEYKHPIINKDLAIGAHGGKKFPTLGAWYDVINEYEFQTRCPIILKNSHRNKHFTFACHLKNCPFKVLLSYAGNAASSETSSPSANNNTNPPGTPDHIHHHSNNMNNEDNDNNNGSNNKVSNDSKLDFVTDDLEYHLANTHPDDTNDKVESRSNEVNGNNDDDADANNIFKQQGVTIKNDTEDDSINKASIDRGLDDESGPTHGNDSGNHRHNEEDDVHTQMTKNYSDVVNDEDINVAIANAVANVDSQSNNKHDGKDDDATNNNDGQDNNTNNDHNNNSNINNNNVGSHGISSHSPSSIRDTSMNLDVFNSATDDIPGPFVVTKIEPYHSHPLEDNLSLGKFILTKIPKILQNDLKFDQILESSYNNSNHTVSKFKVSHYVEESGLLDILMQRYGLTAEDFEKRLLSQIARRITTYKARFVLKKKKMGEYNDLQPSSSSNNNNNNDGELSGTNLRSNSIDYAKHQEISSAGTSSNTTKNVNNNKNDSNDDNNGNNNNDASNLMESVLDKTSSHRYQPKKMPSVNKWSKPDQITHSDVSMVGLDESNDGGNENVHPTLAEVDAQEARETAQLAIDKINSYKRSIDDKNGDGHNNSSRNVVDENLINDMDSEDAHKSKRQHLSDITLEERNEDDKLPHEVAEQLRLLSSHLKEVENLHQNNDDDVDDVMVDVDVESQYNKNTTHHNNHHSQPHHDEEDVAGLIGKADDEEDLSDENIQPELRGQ
Procedure, shortened: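 Detection of bound protein used fluorescent anti-GST, with scans normalised by masliner. The proteins were GST-tagged yeast transcription factors applied at about 100-200 nM to universal all-10-mer Agilent arrays made double-stranded by primer extension. Each ungapped eight-base word, pooled with its reverse complement, was scored with an E-score from the Universal PBM Analysis Suite.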

Sequence	PBM E-score
CAACAGGC	-0.0572
AATCCAGT	0.0412
AGCATGTG	-0.144
TTGCACAA	-0.0953
CGATCATC	0.157
AAGGCGGT	-0.138
AGGCTAGG	-0.28
TACGCGAA	-0.0737
CATGATGA	0.365
GGATCCAA	0.073
AAGTATCG	-0.012
CCGCTAAA	0.00412
CCCAGCCC	-0.222
ACCGGTGC	-0.0171
AATAGTTC	0.16
AATAACTC	0.0551
CGCGGAAG	-0.166
GCATTGCC	-0.0192
GGAACGTA	-0.0442
ATTTCCAC	0.0755
ATCCGTCC	-0.0687
CGGGTACC	-0.132
GAAACTTC	0.0521
CCCTTACC	-0.0961
ACGAACCG	0.252

Sequence	PBM E-score
AGTGCTGA	-0.018
ACGGCGGC	0.17
ATTAAAGG	0.0968
AGCTCTTG	0.0406
GACGTACC	0.247
ACGCTAGG	-0.282
CTTTCGTA	0.376
ATATATGA	0.0175
CGGTCCAG	-0.153
AACAACGC	0.0961
AGCCTAAT	-0.00782
AATATTAA	0.269
ACGTCAAA	0.22
CACCCTTA	-0.00883
GTATGATA	0.327
GCCAGGCA	-0.186
AACCACCT	-0.127
CGCTGGTA	-0.0865
AAGCTTGG	-0.13
ACGCCATG	0.0169
AACTAGTC	-0.214
ATACTGGG	-0.105
AACGATCG	0.24
ACCCAAGT	-0.0785
AGGAGGAA	-0.126

Sequence	PBM E-score
CTCTTCCC	-0.293
CAGGAACC	-0.244
AGCGTGAC	0.186
ATATCCAT	0.154
AGATCTAT	-0.0505
AATTGGTC	0.111
CACGTCAA	0.0325
AAAATCGT	0.247
AGATCCAT	-0.203
CAGAGCGC	-0.162
GTGCCAAC	0.0627
GGAGAACC	-0.211
AGGCGCGG	-0.136
TAAACTTA	0.139
CTGTTTCA	-0.0487
ATGGGAGA	-0.177
GCGAAGCC	-0.277
CCGAAAAG	0.0135
AGGGTCCC	-0.265
ATCCCTGA	-0.0627
CAATATCC	-0.00513
CCGGCTCC	-0.21
AGTGCGGA	-0.0906
AGGGCCAC	-0.143
CTGTCTCA	0.0534

Sequence	PBM E-score
ACGTAATG	0.258
AAACAGAT	0.0674
AGCTTTGG	-0.058
GTTCGACA	0.108
CAGCCGAG	-0.248
CCATTTCC	-0.0246
AATTAAAT	0.0825
CACGATAC	0.255
GCGTTTTA	0.00291
AATAATAA	0.225
TCACGCCA	0.113
GTCCAAGA	-0.112
TAGTTGAA	0.0437
TATAGGCA	-0.0446
AGACTCCA	-0.0568
AAGTACCA	0.0667
GGTAAGGA	-0.214
ATTGCTTG	0.0997
AAGCTGGT	-0.0937
TGAAGCCA	0.0544
ATAACAGC	0.0681
CCACGTTC	-0.0808
CTCTCAAA	0.00774
AAAACAAT	0.0324
CGTCCACC	-0.0672

Sequence	PBM E-score
GACTTCAC	0.169
ATCCTTCA	-0.0543
CATTGGGC	-0.24
GGCTTAAA	0.0563
GCACTCAC	-0.166
GCGAGCGC	-0.0773
CAGTGATC	0.366
CCATAATA	0.137
CCCTGAGG	-0.109
AGATAGTC	-0.00051
AAAAGGTT	-0.0931
ATTCATCC	-0.00341
CGTATTAG	0.241
TCTAGAGA	-0.289
AGATCGAA	0.0897
GGCTGAAA	0.0806
CTCTCGCC	-0.243
GCGGGAAA	0.0281
GAATTACA	0.0246
ATGTCGGA	-0.0366
GTTTCTTA	0.15
CCCATCGC	-0.188
AGTGGCCG	-0.182
CGTGACCC	0.0466
CAATGAGA	-0.0863

Sequence	PBM E-score
ACGGTTAT	0.146
CCTTGGAG	-0.167
ACCAGGTA	-0.0855
AAATTGGA	0.15
AACGATTG	0.221
AGGTAGTG	-0.012
ACCGTCCT	-0.052
CGGCCAAC	-0.133
ATCCCTAA	-0.0343
AAAGCCGC	-0.312
GCAGCGGC	-0.173
GAGTGTGA	0.208
GAGAAACA	0.0661
CGGAGGGA	-0.175
CCGTTGCG	0.245
CACACGTA	0.163
ACCCATCT	0.0981
CCACTTGC	-0.0793
CAAGAACA	0.0504
GGTATGTA	-0.0209
ATCTCCGC	-0.0314
GAGATGGA	-0.173
CGCAAAGC	-0.053
ACGAGGGA	0.0996
CTCCGAAA	-0.148

Sequence	PBM E-score
AAATGAAA	0.214
AGGCTTAA	-0.129
CGTCGGAA	0.213
CGACTCGA	0.0259
AGGATTCC	-0.182
CTAGATGC	0.0769
CCATCTCC	-0.0348
GGCCGCCA	-0.112
AGCTCTTA	-0.00859
AGCCCATA	-0.0755
GACTGTGA	0.0113
ATAGGCAA	-0.193
ACTCGCTC	-0.0894
ATGTTATA	0.125
AGGAACCT	-0.114
CTGAGACA	0.0887
TTAAGCAA	0.0776
AGTTTAAG	-0.109
CTCAGGAA	-0.0849
GATTAGGA	0.133
GCCGGACA	-0.00605
ACGTCGGG	0.00065
TAATTCTA	-0.0318
GCGCTCGA	-0.0265
CTCCTGGA	-0.105

Reformatted: results already given.
Sequence | PBM E-score
ACGGTTAT | 0.146
CCTTGGAG | -0.167
ACCAGGTA | -0.0855
AAATTGGA | 0.15
AACGATTG | 0.221
AGGTAGTG | -0.012
ACCGTCCT | -0.052
CGGCCAAC | -0.133
ATCCCTAA | -0.0343
AAAGCCGC | -0.312
GCAGCGGC | -0.173
GAGTGTGA | 0.208
GAGAAACA | 0.0661
CGGAGGGA | -0.175
CCGTTGCG | 0.245
CACACGTA | 0.163
ACCCATCT | 0.0981
CCACTTGC | -0.0793
CAAGAACA | 0.0504
GGTATGTA | -0.0209
ATCTCCGC | -0.0314
GAGATGGA | -0.173
CGCAAAGC | -0.053
ACGAGGGA | 0.0996
CTCCGAAA | -0.148
AAATGAAA | 0.214
AGGCTTAA | -0.129
CGTCGGAA | 0.213
CGACTCGA | 0.0259
AGGATTCC | -0.182
CTAGATGC | 0.0769
CCATCTCC | -0.0348
GGCCGCCA | -0.112
AGCTCTTA | -0.00859
AGCCCATA | -0.0755
GACTGTGA | 0.0113
ATAGGCAA | -0.193
ACTCGCTC | -0.0894
ATGTTATA | 0.125
AGGAACCT | -0.114
CTGAGACA | 0.0887
TTAAGCAA | 0.0776
AGTTTAAG | -0.109
CTCAGGAA | -0.0849
GATTAGGA | 0.133
GCCGGACA | -0.00605
ACGTCGGG | 0.00065

Following part

Sequence	PBM E-score
CCGCGTTA	-0.0652
ATCCAGTG	0.0711
TTCCTAAA	-0.099
GCATCACC	-0.101
GGTGACAA	0.423
CCGGCCGG	-0.041
CAATACGC	0.0113
CTGAACGC	-0.123
AGAAGTCC	-0.226
CCCGGCAA	-0.0051
GCCCTGCC	-0.284
AGGTGAGG	0.115
TCGGCGAA	0.00757
GCTTGCCA	0.0272
AGCGCGCT	-0.284
ACTACTAG	0.085
AGGTATTA	0.145
CTACCGCA	-0.204
AAGAGGTG	-0.108
ATTAAGTC	0.0599
CATAATCG	0.148
CTGAAGTC	-0.113
ACTCTAAA	-0.0224
GGACTCTA	-0.272
ACGGCGAG	0.111

Sequence	PBM E-score
ACCACGTG	-0.0911
ACGTGTAG	-0.0356
GCATCCCC	-0.147
GCATACAA	0.133
AACGGGAA	0.166
AATGAAGT	-0.0259
TCAAATGA	0.075
ATATCGGG	0.018
AGTCACCC	-0.0187
CGTCGGTA	0.0448
GAATAAAA	0.132
GCTTGATA	0.136
ACCAGCGC	-0.0959
AGGGCAGC	-0.179
ATGCACAA	-0.0115
AAACATGG	-0.198
TCCTAAGA	-0.0983
ATATGATG	0.191
GTTGTAAA	-0.0535

Reference: the supplement of paper PMC3334620
